Measurements: the supplement of paper PMC12067093, “Discovery and optimisation of a covalent ligand for TRIM25 and its application to targeted protein ubiquitination” (Chemical Science, 2025)
The other results are listed elsewhere or left out.

Chains of the proteins cited; added tags and fusions are not shown. Lines headed by an entry give the natural chain unless they say otherwise; changes in a name come on top.
UniProt Q2M2I8: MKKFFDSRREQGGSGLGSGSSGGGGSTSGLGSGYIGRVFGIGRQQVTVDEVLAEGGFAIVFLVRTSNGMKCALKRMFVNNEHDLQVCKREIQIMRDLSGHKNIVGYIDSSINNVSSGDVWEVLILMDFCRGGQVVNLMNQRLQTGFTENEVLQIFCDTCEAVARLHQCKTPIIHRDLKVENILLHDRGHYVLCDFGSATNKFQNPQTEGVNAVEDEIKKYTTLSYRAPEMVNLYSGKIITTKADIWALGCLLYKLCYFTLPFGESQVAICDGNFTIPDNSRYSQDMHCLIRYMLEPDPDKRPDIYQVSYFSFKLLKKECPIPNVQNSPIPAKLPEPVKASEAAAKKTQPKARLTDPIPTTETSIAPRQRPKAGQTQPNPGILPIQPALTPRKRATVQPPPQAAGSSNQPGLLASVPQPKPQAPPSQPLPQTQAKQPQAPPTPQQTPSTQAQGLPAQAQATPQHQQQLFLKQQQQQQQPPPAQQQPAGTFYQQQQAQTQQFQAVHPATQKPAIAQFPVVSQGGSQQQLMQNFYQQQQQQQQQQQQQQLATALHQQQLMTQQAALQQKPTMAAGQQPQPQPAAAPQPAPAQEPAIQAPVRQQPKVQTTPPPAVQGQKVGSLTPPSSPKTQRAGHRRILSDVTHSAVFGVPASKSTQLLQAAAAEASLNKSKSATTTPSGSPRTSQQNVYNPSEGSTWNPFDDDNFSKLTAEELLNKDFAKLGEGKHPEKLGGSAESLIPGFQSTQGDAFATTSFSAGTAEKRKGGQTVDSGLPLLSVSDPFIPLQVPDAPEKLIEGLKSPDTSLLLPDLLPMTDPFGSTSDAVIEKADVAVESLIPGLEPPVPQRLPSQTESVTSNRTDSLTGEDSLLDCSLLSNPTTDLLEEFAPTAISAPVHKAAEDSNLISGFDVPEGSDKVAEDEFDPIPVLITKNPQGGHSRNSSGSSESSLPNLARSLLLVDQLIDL
UniProt P24752: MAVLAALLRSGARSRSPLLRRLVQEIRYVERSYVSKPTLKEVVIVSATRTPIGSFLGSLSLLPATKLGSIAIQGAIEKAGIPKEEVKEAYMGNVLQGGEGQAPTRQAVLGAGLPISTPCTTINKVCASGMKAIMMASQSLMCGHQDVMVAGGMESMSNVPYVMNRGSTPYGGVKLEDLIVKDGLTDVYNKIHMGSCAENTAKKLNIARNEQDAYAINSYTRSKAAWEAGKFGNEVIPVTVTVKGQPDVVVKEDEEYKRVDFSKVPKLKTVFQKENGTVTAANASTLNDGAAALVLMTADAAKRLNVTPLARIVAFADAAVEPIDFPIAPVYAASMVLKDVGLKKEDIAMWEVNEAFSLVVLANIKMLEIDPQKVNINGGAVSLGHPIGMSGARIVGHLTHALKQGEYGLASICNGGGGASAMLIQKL
UniProt Q8NE71: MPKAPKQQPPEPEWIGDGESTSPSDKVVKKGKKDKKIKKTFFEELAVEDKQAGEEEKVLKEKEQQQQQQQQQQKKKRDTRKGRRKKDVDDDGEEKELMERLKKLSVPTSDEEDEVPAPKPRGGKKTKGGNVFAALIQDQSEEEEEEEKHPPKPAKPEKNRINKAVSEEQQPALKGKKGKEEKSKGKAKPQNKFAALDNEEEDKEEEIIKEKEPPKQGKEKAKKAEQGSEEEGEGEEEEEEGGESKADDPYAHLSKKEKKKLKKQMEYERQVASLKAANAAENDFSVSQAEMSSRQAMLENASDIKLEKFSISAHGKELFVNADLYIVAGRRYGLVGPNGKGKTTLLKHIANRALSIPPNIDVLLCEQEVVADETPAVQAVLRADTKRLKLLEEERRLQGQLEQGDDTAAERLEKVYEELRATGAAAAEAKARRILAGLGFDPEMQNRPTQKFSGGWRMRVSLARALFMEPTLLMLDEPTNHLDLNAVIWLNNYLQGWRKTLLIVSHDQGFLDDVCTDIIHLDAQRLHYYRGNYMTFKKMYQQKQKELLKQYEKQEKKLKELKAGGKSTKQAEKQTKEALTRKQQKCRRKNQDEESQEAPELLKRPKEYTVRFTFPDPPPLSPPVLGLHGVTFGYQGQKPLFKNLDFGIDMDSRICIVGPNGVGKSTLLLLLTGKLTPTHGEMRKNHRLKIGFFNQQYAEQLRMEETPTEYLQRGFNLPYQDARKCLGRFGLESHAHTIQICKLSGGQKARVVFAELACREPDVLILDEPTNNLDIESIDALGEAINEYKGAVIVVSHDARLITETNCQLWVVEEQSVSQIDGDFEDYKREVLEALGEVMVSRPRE
UniProt P53396: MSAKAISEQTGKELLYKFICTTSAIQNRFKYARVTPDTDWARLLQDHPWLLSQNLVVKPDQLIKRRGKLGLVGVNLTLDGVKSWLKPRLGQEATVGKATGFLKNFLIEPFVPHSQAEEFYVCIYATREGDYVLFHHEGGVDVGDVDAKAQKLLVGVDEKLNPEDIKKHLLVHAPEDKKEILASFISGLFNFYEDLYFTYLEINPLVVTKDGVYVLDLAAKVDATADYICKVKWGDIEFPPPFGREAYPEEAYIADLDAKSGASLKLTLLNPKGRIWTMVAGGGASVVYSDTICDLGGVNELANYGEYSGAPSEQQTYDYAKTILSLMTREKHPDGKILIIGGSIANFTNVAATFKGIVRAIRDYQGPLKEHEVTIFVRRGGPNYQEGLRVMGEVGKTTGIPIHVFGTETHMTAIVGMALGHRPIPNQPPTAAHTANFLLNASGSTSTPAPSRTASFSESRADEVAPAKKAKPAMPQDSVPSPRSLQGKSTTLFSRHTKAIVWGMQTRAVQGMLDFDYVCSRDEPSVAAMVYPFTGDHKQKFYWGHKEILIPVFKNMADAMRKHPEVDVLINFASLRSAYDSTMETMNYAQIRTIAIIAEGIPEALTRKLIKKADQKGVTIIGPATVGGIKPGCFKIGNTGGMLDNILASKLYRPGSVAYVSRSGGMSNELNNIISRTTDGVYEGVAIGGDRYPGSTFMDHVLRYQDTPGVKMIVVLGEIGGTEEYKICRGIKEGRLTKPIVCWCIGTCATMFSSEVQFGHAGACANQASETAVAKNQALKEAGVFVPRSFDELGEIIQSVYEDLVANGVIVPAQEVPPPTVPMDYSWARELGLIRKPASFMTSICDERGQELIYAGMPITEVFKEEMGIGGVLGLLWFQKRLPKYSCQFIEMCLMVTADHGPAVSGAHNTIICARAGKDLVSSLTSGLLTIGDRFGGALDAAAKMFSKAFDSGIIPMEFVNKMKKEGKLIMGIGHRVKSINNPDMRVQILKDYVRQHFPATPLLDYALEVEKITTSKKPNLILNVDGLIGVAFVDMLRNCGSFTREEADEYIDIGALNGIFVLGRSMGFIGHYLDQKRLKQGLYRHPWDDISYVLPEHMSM
UniProt Q99798: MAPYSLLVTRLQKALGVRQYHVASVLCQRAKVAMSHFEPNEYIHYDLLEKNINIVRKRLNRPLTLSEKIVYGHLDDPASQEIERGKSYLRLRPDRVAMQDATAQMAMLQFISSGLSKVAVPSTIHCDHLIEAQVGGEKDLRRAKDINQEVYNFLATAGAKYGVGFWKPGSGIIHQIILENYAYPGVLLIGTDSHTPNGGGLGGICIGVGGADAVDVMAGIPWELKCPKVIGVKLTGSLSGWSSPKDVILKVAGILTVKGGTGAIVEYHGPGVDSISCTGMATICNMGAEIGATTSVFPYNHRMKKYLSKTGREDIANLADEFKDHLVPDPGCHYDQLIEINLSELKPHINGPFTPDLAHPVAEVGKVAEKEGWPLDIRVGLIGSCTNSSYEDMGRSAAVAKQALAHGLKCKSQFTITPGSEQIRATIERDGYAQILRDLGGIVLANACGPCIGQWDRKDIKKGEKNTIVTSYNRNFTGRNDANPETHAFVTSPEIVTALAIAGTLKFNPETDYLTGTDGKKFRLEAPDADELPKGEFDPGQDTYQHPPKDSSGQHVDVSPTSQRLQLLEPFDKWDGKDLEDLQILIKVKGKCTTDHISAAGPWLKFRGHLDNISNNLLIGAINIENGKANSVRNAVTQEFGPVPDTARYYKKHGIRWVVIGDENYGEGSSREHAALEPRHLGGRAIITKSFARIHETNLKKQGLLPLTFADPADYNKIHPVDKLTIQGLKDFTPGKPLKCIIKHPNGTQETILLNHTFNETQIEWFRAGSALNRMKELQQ
UniProt Q12979: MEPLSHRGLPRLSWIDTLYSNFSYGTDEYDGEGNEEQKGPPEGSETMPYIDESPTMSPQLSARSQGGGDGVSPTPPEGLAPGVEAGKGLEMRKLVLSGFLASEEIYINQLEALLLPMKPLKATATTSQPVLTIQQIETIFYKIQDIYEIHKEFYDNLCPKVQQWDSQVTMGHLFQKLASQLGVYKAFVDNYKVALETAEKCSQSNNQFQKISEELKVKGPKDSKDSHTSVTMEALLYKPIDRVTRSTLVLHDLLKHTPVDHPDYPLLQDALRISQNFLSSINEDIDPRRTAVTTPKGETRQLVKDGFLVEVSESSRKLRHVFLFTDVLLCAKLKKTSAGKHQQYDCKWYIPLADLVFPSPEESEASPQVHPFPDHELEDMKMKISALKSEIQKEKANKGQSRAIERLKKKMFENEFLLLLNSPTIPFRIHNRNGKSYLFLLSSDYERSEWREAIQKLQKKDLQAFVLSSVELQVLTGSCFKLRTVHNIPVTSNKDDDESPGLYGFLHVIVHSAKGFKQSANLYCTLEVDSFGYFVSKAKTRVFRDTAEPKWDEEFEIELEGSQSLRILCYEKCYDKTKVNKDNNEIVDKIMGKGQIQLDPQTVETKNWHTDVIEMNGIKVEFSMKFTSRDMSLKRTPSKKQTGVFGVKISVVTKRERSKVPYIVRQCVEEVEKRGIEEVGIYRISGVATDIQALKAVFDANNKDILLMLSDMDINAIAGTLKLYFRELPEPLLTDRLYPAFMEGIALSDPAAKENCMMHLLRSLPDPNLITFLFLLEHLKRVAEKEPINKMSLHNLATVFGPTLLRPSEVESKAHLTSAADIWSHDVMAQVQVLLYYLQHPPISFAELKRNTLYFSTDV
UniProt Q9BWD1: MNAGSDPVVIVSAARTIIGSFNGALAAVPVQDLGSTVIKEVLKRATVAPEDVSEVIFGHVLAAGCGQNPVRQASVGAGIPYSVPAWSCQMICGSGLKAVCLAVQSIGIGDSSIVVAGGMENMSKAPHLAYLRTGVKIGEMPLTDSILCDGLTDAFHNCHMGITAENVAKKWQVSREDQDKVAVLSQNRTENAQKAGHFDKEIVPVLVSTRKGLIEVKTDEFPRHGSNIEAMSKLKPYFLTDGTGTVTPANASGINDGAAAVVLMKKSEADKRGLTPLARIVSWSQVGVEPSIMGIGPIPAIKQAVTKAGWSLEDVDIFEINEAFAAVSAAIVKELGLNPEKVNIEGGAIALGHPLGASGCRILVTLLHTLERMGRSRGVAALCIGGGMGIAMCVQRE
UniProt Q9UG63: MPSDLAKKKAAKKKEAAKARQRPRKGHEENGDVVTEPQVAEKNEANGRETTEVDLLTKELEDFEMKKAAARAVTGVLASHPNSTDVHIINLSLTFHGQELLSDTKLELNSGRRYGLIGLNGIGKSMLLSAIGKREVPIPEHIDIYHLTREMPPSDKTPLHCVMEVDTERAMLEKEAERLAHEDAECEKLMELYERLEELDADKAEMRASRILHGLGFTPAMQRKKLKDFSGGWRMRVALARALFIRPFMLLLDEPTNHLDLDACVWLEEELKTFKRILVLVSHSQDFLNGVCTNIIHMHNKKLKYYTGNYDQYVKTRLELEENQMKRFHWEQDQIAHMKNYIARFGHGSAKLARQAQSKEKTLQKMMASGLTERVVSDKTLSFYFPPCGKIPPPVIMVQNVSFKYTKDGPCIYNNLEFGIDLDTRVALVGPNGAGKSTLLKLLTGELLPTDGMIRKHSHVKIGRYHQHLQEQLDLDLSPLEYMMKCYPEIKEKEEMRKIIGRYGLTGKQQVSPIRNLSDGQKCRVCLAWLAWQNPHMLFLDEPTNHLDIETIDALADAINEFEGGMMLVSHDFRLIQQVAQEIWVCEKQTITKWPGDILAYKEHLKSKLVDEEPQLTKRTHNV
UniProt P09110: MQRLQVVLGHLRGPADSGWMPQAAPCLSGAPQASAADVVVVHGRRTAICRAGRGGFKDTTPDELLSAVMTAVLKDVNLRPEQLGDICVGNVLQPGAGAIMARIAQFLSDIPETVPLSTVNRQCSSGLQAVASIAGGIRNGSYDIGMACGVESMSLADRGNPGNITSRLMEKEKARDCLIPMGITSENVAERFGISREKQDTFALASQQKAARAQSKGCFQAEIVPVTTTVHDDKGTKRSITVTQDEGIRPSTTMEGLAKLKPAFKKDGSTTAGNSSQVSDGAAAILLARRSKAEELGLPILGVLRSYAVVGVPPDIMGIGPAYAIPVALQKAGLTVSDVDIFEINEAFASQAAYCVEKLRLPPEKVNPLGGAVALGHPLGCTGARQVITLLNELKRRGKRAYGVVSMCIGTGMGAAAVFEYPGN

Compound: Cc1cc(ccc1-c1ccccc1)C(=O)N1CCCN(CC1)C(=O)CCl [compound 10]
Experiment: probe-labelled cysteine peptide fold change vs DMSO (competition) (log2 fold change); higher = less target engagement (more negative = stronger competition)
Conditions: THP-1, incubation time: 4 h
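Note: competitive profiling in live THP-1 cells: cysteine peptides tagged with an iodoacetamide desthiobiotin (IA-DTB) probe, intensity after compound treatment relative to DMSO-treated cells.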

Target	probe-labelled cysteine peptide fold change (10 µM)	probe-labelled cysteine peptide fold change (50 µM)
ACO1_P21399_50_NCDEFLVK (UniProt P21399)	-0.182	0.363
ACAP2_Q15057_691_GPLHHATVLGHTGQVCLFLK (UniProt Q15057)	-0.107	-1.08
ABHD15_Q6UXT9_323_EFEEALFCHTK (UniProt Q6UXT9)	0.0269	-0.0455
AAK1_Q2M2I8_156_LQTGFTENEVLQIFCDTCEAVAR (UniProt Q2M2I8)	-0.149	0.226
ACAT1_P24752_196_IHMGSCAENTAK (UniProt P24752)	-0.282	-1.22
ABCE1_P61221_475_VALALCLGK (UniProt P61221)	0.0849	0.232
ABCC1_P33527_1047_CLHVDLLHSILR (UniProt P33527)	-0.245	-0.823
AACS_Q86V21_493_AVWGESGELVCTKPIPCQPTHFWNDENGNK (UniProt Q86V21)	-0.0997	-0.0186
AAK1_Q2M2I8_319_KECPIPNVQNSPIPAK (UniProt Q2M2I8)	-0.172	-0.101
ABL2_P42684_266_CNKPTVYGVSPIHDK (UniProt P42684)	0.117	0.413
ABCF1_Q8NE71_758_VVFAELACR (UniProt Q8NE71)	0.145	0.239
ACACA_Q13085_1396_NFDLTAIPCANHK (UniProt Q13085)	-0.104	0.042
ACAT1_P24752_413_QGEYGLASICNGGGGASAMLIQK (UniProt P24752)	-0.164	-1.09
ACADS_P16219_109_GCASTGVIMSVNNSLYLGPILK (UniProt P16219)	0.363	0.27
ACLY_P53396_1040_NCGSFTREEADEYIDIGALNGIFVLGR (UniProt P53396)	-0.184	-0.00144
ACO2_Q99798_592_CTTDHISAAGPWLK (UniProt Q99798)	0.0389	-0.0267
ABRAXAS2_Q15018_224_VQAVCADVEK (UniProt Q15018)	0.115	0.0893
ABR_Q12979_756_ENCMMHLLR (UniProt Q12979)	-0.114	0.0288
AARS_P49588_533_TCFYAEQGGQIYDEGYLVK (UniProt P49588)	-0.3	0.0208

Target	probe-labelled cysteine peptide fold change (10 µM)	probe-labelled cysteine peptide fold change (50 µM)
ABCF1_Q8NE71_741_FGLESHAHTIQICK (UniProt Q8NE71)	0.208	-0.00531
ABCE1_P61221_201_TQAIVCQQLDLTHLK (UniProt P61221)	-0.0707	-0.159
ABHD16A_O95870_248_LVEECNGR (UniProt O95870)	0.0158	-0.11
ACACA_Q13085_1769_VSALNSVHCEHVEDEGESR (UniProt Q13085)	-0.0711	0.0398
ACLY_P53396_633_GVTIIGPATVGGIKPGCFK (UniProt P53396)	-0.00834	0.0362
ACAT2_Q9BWD1_65_RATVAPEDVSEVIFGHVLAAGCGQNPVR (UniProt Q9BWD1)	-6.94e-05	0.224
ACBD6_Q9BR61_200_ALLHWACDR (UniProt Q9BR61)	0.0836	-0.0992
ABCF2_Q9UG63_186_LAHEDAECEK (UniProt Q9UG63)	-0.104	0.00337
ACLY_P53396_519_AVQGMLDFDYVCSR (UniProt P53396)	0.0361	0.231
ACO2_Q99798_451_DLGGIVLANACGPCIGQWDRK (UniProt Q99798)	-0.125	-0.398
ACOT7_O00154_288_KGCVITISGR (UniProt O00154)	0.00543	-0.136
ACAA1_P09110_218_GCFQAEIVPVTTTVHDDK (UniProt P09110)	-0.0407	0.0209
ACAA1_P09110_123_QCSSGLQAVASIAGGIR (UniProt P09110)	-0.136	-0.197
ACACA_Q13085_1470_TDCNHIFLNFVPTVIMDPSK (UniProt Q13085)	0.195	0.108
ACO2_Q99798_332_DHLVPDPGCHYDQLIEINLSELK (UniProt Q99798)	-0.197	0.344
ACAT2_Q9BWD1_360_VNIEGGAIALGHPLGASGCR (UniProt Q9BWD1)	0.232	0.226
ABCF2_Q9UG63_161_TPLHCVMEVDTER (UniProt Q9UG63)	-0.174	-0.0244
ACAA1_P09110_87_DVNLRPEQLGDICVGNVLQPGAGAIMAR (UniProt P09110)	-0.0367	0.282
